Binding data for two substances are collected here from publication PMC5454954, “BDNF Binds Its Pro-Peptide with High Affinity and the Common Val66Met Polymorphism Attenuates the Interaction” (International Journal of Molecular Sciences, 2017).

By UniProt entry, the sequences of proteins in these tests, tags left out. Residues count along the entry.
UniProt P02769, residues 25-607: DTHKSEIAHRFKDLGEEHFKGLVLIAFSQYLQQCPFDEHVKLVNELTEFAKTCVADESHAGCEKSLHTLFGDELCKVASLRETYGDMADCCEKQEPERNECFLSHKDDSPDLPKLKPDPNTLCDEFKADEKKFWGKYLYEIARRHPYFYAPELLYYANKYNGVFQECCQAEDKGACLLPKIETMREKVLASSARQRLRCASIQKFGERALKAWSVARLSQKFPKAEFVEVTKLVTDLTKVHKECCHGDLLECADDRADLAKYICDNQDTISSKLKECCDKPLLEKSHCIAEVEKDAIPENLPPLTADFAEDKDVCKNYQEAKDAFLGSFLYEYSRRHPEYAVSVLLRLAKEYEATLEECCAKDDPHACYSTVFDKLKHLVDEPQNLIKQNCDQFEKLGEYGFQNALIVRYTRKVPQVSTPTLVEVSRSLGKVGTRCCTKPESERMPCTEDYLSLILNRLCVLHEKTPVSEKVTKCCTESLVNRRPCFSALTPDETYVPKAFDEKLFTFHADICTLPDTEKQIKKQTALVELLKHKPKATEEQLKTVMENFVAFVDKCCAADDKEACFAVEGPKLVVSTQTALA
UniProt P05019, residues 49-118: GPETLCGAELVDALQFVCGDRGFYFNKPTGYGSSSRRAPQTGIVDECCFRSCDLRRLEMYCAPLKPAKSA

Results are given in words; binding and its absence hold for the method and conditions named.

The target of this experiment is T1, recombinant wild-type BDNF pro-peptide (Val at position 66) (human) (UniProt P23560).
T1 sequence: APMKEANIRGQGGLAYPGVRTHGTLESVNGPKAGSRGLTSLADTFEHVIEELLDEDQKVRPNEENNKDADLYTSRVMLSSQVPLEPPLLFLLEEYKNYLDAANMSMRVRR
Put plainly: SPR; BIAcore 2000; BDNF pro-peptide (Val or Met) amine-coupled to a CM5 chip at about 2000 RU; neurotrophins and other proteins flowed over; 20 °C, 20 µL/min; HBS-EP (0.01 M HEPES pH 7.4, 0.15 M NaCl, 3 mM EDTA, 0.005% Surfactant P20); both purified. Background: Surface plasmon resonance follows binding to a sensor surface in real time, without labels.

As for “bovine serum albumin (BSA) (from UniProt P02769 25-607)”, the binding entry is listed as “no binding”. Turning to “recombinant human insulin-like growth factor I (IGF-I) (from UniProt P05019 49-118) (ligand)”, the binding entry is “no binding”.
